Data: PubChem BioAssay AID188 (DTP/NCI, 2004)
Shown are survivors of the treated group in tumour-free mice. Counts of survivors are from the toxicity check (mostly the fifth day) where no day follows; animals may have died later. Schedules are NCI's codes, read here as Q, the interval in days (D) or hours (H), X, the number of doses. Marks such as (2×) stand for listed records that agree. Some entries were tested several times; the results are listed from low to high.

Tested on: CD2F1 mice, nontumored, toxicity/survival
Experiment: NCI In Vivo Anticancer Drug Screen. Data for tumor model Nontumored Animals (Toxicity Test) in CD2F1 (CDF1) mice

## COC(=O)[C@@]12OC[C@]34[C@H]([C@@H](O)[C@@H]1O)[C@@]1(C)CC(=O)C(O)=C(C)[C@@H]1C[C@H]3OC(=O)[C@H](OC(=O)/C=C(\C)C(C)C)[C@@H]24
dose: 0.03 mg/kg/injection, schedule: Q01DX009 (ip), vehicle: saline + alcohol
  survivor count: 8 of 8
dose: 0.03 mg/kg/injection, schedule: Q01DX009 (ip), vehicle: saline with Tween-80
  survivor count: 8 of 8
dose: 0.03 mg/kg/injection, schedule: Q03HX024 (ip), vehicle: saline + alcohol
  survivor count: 8 of 8
dose: 0.06 mg/kg/injection, schedule: Q01DX009 (ip), vehicle: saline + alcohol
  survivor count: 8 of 8
dose: 0.06 mg/kg/injection, schedule: Q01DX009 (ip), vehicle: saline with Tween-80
  survivor count: 8 of 8
dose: 0.06 mg/kg/injection, schedule: Q01DX009 (sc), vehicle: saline + alcohol
  survivor count: 8 of 8
dose: 0.06 mg/kg/injection, schedule: Q03HX016 (ip), vehicle: saline + alcohol
  survivor count: 8 of 8
dose: 0.06 mg/kg/injection, schedule: Q03HX024 (ip), vehicle: saline + alcohol
  survivor count: 8 of 8
dose: 0.13 mg/kg/injection, schedule: Q01DX009 (ip), vehicle: saline + alcohol
  survivor count: 8 of 8
dose: 0.13 mg/kg/injection, schedule: Q01DX009 (ip), vehicle: saline with Tween-80
  survivor count: 8 of 8
dose: 0.13 mg/kg/injection, schedule: Q01DX009 (sc), vehicle: saline + alcohol
  survivor count: 8 of 8
dose: 0.13 mg/kg/injection, schedule: Q03HX008 (ip), vehicle: saline + alcohol
  survivor count: 7 of 8
dose: 0.13 mg/kg/injection, schedule: Q03HX016 (ip), vehicle: saline + alcohol
  survivor count: 8 of 8
dose: 0.13 mg/kg/injection, schedule: Q03HX024 (ip), vehicle: saline + alcohol
  survivor count: 8 of 8
dose: 0.25 mg/kg/injection, schedule: Q01DX009 (ip), vehicle: saline + alcohol
  survivor count: 8 of 8
dose: 0.25 mg/kg/injection, schedule: Q01DX009 (ip), vehicle: saline with Tween-80
  survivor count: 8 of 8
dose: 0.25 mg/kg/injection, schedule: Q01DX009 (sc), vehicle: saline + alcohol
  survivor count: 8 of 8
dose: 0.25 mg/kg/injection, schedule: Q03HX008 (ip), vehicle: saline + alcohol
  survivor count: 5 of 8
dose: 0.25 mg/kg/injection, schedule: Q03HX016 (ip), vehicle: saline + alcohol
  survivor count: 5 of 8
dose: 0.25 mg/kg/injection, schedule: Q03HX024 (ip), vehicle: saline + alcohol
  survivor count: 5 of 8
dose: 0.25 mg/kg/injection, schedule: Q04DX003 (ip), vehicle: saline + alcohol
  survivor count: 8 of 8
dose: 0.5 mg/kg/injection, schedule: Q01DX009 (ip), vehicle: saline + alcohol
  survivor count: 8 of 8
dose: 0.5 mg/kg/injection, schedule: Q01DX009 (ip), vehicle: saline with Tween-80
  survivor count: 8 of 8
dose: 0.5 mg/kg/injection, schedule: Q01DX009 (oral), vehicle: saline + alcohol
  survivor count: 8 of 8
dose: 0.5 mg/kg/injection, schedule: Q01DX009 (sc), vehicle: saline + alcohol
  survivor count: 8 of 8
dose: 0.5 mg/kg/injection, schedule: Q03HX008 (ip), vehicle: saline + alcohol
  survivor count: 8 of 8
dose: 0.5 mg/kg/injection, schedule: Q03HX016 (ip), vehicle: saline + alcohol
  survivor count: 0 of 8
dose: 0.5 mg/kg/injection, schedule: Q03HX024 (ip), vehicle: saline + alcohol
  survivor count: 1 of 8
dose: 0.5 mg/kg/injection, schedule: Q04DX003 (ip), vehicle: saline + alcohol
  survivor count: 8 of 8
dose: 0.5 mg/kg/injection, schedule: Q08DX002 (ip), vehicle: saline + alcohol
  survivor count: 8 of 8
dose: 1.0 mg/kg/injection, schedule: Q01DX001 (ip), vehicle: saline + alcohol
  survivor count: 8 of 8
dose: 1.0 mg/kg/injection, schedule: Q01DX001 (sc), vehicle: saline + alcohol
  survivor count: 8 of 8
dose: 1.0 mg/kg/injection, schedule: Q01DX009 (ip), vehicle: saline + alcohol
  survivor count: 8 of 8
dose: 1.0 mg/kg/injection, schedule: Q01DX009 (ip), vehicle: saline with Tween-80
  survivor count: 8 of 8
dose: 1.0 mg/kg/injection, schedule: Q01DX009 (oral), vehicle: saline + alcohol
  survivor count: 8 of 8
dose: 1.0 mg/kg/injection, schedule: Q01DX009 (sc), vehicle: saline + alcohol
  survivor count: 8 of 8
dose: 1.0 mg/kg/injection, schedule: Q03HX008 (ip), vehicle: saline + alcohol
  survivor count: 0 of 8
dose: 1.0 mg/kg/injection, schedule: Q03HX016 (ip), vehicle: saline + alcohol
  survivor count: 0 of 8
dose: 1.0 mg/kg/injection, schedule: Q04DX003 (ip), vehicle: saline + alcohol
  survivor count: 8 of 8
dose: 1.0 mg/kg/injection, schedule: Q08DX002 (ip), vehicle: saline + alcohol
  survivor count: 8 of 8
dose: 2.0 mg/kg/injection, schedule: Q01DX001 (ip), vehicle: saline + alcohol
  survivor count: 8 of 8
dose: 2.0 mg/kg/injection, schedule: Q01DX001 (sc), vehicle: saline + alcohol
  survivor count: 8 of 8
dose: 2.0 mg/kg/injection, schedule: Q01DX009 (ip), vehicle: saline + alcohol
  survivor count: 8 of 8
dose: 2.0 mg/kg/injection, schedule: Q01DX009 (ip), vehicle: saline with Tween-80
  survivor count: 8 of 8
dose: 2.0 mg/kg/injection, schedule: Q01DX009 (oral), vehicle: saline + alcohol
  survivor count: 8 of 8
dose: 2.0 mg/kg/injection, schedule: Q01DX009 (sc), vehicle: saline + alcohol
  survivor count: 8 of 8
dose: 2.0 mg/kg/injection, schedule: Q03HX008 (ip), vehicle: saline + alcohol
  survivor count: 0 of 8
dose: 2.0 mg/kg/injection, schedule: Q03HX016 (ip), vehicle: saline + alcohol
  survivor count: 0 of 8
dose: 2.0 mg/kg/injection, schedule: Q04DX003 (ip), vehicle: saline + alcohol
  survivor count: 7 of 8
dose: 2.0 mg/kg/injection, schedule: Q08DX002 (ip), vehicle: saline + alcohol
  survivor count: 8 of 8
dose: 4.0 mg/kg/injection, schedule: Q01DX001 (ip), vehicle: saline + alcohol
  survivor count: 7 of 8
dose: 4.0 mg/kg/injection, schedule: Q01DX001 (oral), vehicle: saline + alcohol
  survivor count: 8 of 8
dose: 4.0 mg/kg/injection, schedule: Q01DX001 (sc), vehicle: saline + alcohol
  survivor count: 5 of 8
dose: 4.0 mg/kg/injection, schedule: Q01DX009 (ip), vehicle: saline + alcohol
  survivor count: 4 of 8
dose: 4.0 mg/kg/injection, schedule: Q01DX009 (ip), vehicle: saline with Tween-80
  survivor count: 4 of 8
dose: 4.0 mg/kg/injection, schedule: Q01DX009 (oral), vehicle: saline + alcohol
  survivor count: 3 of 8
dose: 4.0 mg/kg/injection, schedule: Q04DX003 (ip), vehicle: saline + alcohol
  survivor count: 8 of 8
dose: 4.0 mg/kg/injection, schedule: Q08DX002 (ip), vehicle: saline + alcohol
  survivor count: 7 of 8
dose: 8.0 mg/kg/injection, schedule: Q01DX001 (ip), vehicle: saline + alcohol
  survivor count: 2 of 8
dose: 8.0 mg/kg/injection, schedule: Q01DX001 (oral), vehicle: saline + alcohol
  survivor count: 5 of 8
dose: 8.0 mg/kg/injection, schedule: Q01DX001 (sc), vehicle: saline + alcohol
  survivor count: 0 of 8
dose: 8.0 mg/kg/injection, schedule: Q01DX009 (oral), vehicle: saline + alcohol
  survivor count: 0 of 8
dose: 8.0 mg/kg/injection, schedule: Q08DX002 (ip), vehicle: saline + alcohol
  survivor count: 1 of 8
dose: 16.0 mg/kg/injection, schedule: Q01DX001 (ip), vehicle: saline + alcohol
  survivor count: 0 of 8
dose: 16.0 mg/kg/injection, schedule: Q01DX001 (oral), vehicle: saline + alcohol
  survivor count: 0 of 8
dose: 16.0 mg/kg/injection, schedule: Q01DX001 (sc), vehicle: saline + alcohol
  survivor count: 0 of 8
dose: 16.0 mg/kg/injection, schedule: Q08DX002 (ip), vehicle: saline + alcohol
  survivor count: 0 of 8
dose: 32.0 mg/kg/injection, schedule: Q01DX001 (oral), vehicle: saline + alcohol
  survivor count: 0 of 8
dose: 64.0 mg/kg/injection, schedule: Q01DX001 (oral), vehicle: saline + alcohol
  survivor count: 0 of 8

## CCCCCCCCN(C)N=Nc1ccc(C(N)=O)cc1
dose: 79.0 mg/kg/injection, schedule: Q01DX009 (ip), vehicle: Klucel (hydroxypropylcellulose) (HPC)
  survivor count: 10 of 10
dose: 118.0 mg/kg/injection, schedule: Q01DX009 (ip), vehicle: Klucel (hydroxypropylcellulose) (HPC)
  survivor count: 10 of 10
dose: 177.0 mg/kg/injection, schedule: Q01DX009 (ip), vehicle: Klucel (hydroxypropylcellulose) (HPC)
  survivor count: 10 of 10
dose: 266.0 mg/kg/injection, schedule: Q01DX009 (ip), vehicle: Klucel (hydroxypropylcellulose) (HPC)
  survivor count: 8 of 8
dose: 400.0 mg/kg/injection, schedule: Q01DX009 (ip), vehicle: Klucel (hydroxypropylcellulose) (HPC)
  survivor count: 8 of 8

## CC(C)CC(NC(=O)C(N)Cc1ccc(N(CCCl)CCCl)cc1)C(=O)O (stereo unspecified)
dose: 1.0 mg/kg/injection, schedule: Q04DX003 (ip), vehicle: saline with Tween-80
  survivor count: 8 of 8
dose: 2.0 mg/kg/injection, schedule: Q04DX003 (ip), vehicle: saline with Tween-80
  survivor count: 8 of 8
dose: 3.7 mg/kg/injection, schedule: Q04DX003 (ip), vehicle: saline with Tween-80
  survivor count: 8 of 8
dose: 4.0 mg/kg/injection, schedule: Q04DX003 (ip), vehicle: saline with Tween-80
  survivor count: 8 of 8
dose: 5.6 mg/kg/injection, schedule: Q04DX003 (ip), vehicle: saline with Tween-80
  survivor count: 8 of 8 (2×)
dose: 8.0 mg/kg/injection, schedule: Q04DX003 (ip), vehicle: saline with Tween-80
  survivor count: 8 of 8 (2×)
dose: 8.4 mg/kg/injection, schedule: Q04DX003 (ip), vehicle: saline with Tween-80
  survivor count: 8 of 8 (2×)
dose: 12.6 mg/kg/injection, schedule: Q04DX003 (ip), vehicle: saline with Tween-80
  survivor count: 8 of 8 (2×)
dose: 16.0 mg/kg/injection, schedule: Q04DX003 (ip), vehicle: saline with Tween-80
  survivor count: 6 of 8 and 8 of 8 (2×)
dose: 18.9 mg/kg/injection, schedule: Q04DX003 (ip), vehicle: saline with Tween-80
  survivor count: 8 of 8 (2×)
dose: 28.4 mg/kg/injection, schedule: Q04DX003 (ip), vehicle: saline with Tween-80
  survivor count: 8 of 8 (2×)
dose: 32.0 mg/kg/injection, schedule: Q04DX003 (ip), vehicle: saline with Tween-80
  survivor count: 6 of 8 and 8 of 8
dose: 42.6 mg/kg/injection, schedule: Q04DX003 (ip), vehicle: saline with Tween-80
  survivor count: 8 of 8 (2×)
dose: 64.0 mg/kg/injection, schedule: Q04DX003 (ip), vehicle: saline with Tween-80
  survivor count: 2 of 8, 6 of 8, 8 of 8
dose: 96.0 mg/kg/injection, schedule: Q04DX003 (ip), vehicle: saline with Tween-80
  survivor count: 8 of 8
dose: 128.0 mg/kg/injection, schedule: Q04DX003 (ip), vehicle: saline with Tween-80
  survivor count: 0 of 8 and 4 of 8
dose: 256.0 mg/kg/injection, schedule: Q04DX003 (ip), vehicle: saline with Tween-80
  survivor count: 0 of 8 and 1 of 8
